Reference: the supplement of paper PMC12067093, “Discovery and optimisation of a covalent ligand for TRIM25 and its application to targeted protein ubiquitination” (Chemical Science, 2025)
Some of the results follow.

Amino acid sequences for entries named in this document (tags omitted). A change or cut given only in a name is not applied to a line headed by its entry.
UniProt P33121: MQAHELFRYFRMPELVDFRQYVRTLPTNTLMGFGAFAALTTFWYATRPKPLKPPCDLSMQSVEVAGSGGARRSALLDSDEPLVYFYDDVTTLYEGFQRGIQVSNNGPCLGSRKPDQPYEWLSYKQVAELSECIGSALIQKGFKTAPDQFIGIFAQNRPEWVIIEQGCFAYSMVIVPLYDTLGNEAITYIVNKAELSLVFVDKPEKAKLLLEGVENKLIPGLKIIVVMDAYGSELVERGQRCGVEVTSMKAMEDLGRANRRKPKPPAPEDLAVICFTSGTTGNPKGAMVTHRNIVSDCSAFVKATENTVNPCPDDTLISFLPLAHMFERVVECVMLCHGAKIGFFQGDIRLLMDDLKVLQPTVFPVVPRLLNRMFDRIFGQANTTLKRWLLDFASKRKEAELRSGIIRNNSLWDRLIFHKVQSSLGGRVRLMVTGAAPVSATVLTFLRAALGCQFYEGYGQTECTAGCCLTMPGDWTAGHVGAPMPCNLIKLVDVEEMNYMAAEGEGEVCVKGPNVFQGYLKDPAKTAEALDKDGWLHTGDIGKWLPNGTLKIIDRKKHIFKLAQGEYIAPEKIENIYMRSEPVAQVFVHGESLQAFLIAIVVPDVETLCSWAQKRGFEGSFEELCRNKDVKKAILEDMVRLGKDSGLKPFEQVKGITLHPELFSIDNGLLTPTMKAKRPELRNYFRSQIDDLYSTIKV
UniProt O14672: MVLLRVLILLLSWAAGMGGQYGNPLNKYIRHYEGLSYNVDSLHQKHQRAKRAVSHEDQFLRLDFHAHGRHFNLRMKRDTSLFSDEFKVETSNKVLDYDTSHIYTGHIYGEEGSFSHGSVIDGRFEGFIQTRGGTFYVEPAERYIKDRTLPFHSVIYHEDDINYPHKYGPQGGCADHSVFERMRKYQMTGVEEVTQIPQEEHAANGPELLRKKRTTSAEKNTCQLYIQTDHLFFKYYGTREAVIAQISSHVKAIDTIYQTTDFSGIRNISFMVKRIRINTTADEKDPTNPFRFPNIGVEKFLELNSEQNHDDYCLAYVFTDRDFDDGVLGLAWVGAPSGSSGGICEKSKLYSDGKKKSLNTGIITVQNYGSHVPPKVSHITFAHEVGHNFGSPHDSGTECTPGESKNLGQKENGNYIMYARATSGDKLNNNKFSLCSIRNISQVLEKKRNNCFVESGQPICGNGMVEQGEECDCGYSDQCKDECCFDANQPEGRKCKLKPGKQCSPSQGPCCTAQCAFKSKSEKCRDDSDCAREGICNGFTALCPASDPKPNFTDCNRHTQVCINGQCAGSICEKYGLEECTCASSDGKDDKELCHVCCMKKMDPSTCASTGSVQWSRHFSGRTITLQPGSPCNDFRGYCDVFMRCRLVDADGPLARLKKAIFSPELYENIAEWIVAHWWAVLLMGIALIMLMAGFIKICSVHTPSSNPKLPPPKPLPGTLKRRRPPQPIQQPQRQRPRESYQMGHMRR
UniProt Q9H2P0: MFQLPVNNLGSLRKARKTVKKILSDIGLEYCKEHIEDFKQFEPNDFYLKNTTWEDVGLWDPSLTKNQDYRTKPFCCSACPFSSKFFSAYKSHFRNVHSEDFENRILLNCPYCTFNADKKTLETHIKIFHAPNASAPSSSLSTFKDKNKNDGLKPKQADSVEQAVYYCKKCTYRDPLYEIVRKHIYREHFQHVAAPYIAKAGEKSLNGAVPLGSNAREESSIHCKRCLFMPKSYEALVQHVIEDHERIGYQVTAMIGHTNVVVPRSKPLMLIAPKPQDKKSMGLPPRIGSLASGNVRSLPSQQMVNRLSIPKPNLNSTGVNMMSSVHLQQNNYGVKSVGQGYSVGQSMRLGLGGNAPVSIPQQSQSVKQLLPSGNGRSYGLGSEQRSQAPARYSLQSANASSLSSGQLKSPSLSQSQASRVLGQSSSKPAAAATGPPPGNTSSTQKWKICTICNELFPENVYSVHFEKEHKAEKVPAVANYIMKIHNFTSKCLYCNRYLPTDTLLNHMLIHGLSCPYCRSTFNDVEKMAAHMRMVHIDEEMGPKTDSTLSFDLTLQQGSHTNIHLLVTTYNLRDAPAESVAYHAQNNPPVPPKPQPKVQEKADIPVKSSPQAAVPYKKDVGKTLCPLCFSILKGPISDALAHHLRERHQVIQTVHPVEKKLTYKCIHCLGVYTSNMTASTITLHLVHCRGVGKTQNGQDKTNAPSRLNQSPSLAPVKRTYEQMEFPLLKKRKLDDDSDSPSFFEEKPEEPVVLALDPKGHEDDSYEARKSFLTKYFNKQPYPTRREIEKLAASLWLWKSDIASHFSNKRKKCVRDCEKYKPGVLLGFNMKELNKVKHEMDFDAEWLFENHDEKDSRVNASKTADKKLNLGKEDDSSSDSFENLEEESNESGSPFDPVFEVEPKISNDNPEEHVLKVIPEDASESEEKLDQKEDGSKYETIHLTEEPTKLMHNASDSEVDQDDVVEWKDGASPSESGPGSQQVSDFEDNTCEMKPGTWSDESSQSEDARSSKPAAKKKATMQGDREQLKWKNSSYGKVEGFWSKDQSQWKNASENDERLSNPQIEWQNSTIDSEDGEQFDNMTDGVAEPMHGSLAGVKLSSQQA
UniProt P55263: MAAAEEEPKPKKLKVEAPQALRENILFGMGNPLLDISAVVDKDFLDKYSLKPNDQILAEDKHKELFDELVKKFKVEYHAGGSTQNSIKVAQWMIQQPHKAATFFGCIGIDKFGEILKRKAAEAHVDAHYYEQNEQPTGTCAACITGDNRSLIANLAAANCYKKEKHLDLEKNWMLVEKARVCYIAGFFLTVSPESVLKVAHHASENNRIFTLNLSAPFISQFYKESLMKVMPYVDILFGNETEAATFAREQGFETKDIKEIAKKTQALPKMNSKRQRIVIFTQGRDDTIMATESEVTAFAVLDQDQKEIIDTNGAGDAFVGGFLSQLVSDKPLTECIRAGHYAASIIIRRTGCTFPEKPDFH
UniProt Q9H6R3: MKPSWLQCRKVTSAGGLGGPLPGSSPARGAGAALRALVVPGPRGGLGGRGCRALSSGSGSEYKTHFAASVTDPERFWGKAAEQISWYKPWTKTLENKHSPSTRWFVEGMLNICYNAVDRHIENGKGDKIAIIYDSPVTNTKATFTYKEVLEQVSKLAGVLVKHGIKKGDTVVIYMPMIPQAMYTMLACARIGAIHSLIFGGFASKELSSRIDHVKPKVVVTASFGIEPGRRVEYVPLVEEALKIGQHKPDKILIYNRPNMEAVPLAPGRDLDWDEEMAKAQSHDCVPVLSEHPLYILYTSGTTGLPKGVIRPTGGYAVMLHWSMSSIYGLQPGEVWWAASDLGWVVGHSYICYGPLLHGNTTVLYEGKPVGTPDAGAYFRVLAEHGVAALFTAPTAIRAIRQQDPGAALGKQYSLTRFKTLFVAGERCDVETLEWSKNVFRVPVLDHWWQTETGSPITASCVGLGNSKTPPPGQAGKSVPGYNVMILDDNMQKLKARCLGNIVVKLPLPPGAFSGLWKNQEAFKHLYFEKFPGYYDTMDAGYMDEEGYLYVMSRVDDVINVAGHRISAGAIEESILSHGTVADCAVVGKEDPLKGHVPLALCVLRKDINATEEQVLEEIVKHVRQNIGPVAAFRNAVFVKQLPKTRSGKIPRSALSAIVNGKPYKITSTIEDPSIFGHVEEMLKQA
UniProt P55265: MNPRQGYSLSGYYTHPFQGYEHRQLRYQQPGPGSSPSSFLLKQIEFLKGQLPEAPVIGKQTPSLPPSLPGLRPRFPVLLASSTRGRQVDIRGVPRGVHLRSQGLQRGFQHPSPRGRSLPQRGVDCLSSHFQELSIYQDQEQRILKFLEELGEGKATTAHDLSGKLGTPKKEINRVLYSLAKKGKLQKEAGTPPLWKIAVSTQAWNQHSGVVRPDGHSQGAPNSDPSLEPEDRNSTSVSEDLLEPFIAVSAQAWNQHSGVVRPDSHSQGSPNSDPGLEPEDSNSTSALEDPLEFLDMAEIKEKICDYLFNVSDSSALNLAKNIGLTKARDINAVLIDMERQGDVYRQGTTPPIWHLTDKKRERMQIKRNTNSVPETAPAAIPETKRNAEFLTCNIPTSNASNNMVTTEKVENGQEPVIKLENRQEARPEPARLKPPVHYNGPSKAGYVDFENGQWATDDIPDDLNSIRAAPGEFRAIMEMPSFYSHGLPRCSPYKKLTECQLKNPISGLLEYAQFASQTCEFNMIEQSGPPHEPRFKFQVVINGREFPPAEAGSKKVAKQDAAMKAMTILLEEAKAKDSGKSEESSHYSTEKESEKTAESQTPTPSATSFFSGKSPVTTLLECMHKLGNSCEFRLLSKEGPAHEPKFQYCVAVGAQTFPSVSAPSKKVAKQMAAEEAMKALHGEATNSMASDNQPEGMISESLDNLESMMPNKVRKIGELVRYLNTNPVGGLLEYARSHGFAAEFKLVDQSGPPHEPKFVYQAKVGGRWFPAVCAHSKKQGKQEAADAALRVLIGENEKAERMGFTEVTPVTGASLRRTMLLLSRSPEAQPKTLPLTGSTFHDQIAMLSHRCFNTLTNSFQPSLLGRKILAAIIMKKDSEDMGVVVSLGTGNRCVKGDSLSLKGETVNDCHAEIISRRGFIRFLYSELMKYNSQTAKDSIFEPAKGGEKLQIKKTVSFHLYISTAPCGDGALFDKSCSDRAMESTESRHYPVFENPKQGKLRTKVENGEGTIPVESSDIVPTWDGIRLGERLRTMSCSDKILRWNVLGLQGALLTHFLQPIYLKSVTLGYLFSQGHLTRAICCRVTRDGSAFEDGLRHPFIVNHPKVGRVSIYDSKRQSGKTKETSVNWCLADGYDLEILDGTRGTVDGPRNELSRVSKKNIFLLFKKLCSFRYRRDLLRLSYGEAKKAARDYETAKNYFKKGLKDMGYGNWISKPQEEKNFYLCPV
UniProt Q9Y4W6: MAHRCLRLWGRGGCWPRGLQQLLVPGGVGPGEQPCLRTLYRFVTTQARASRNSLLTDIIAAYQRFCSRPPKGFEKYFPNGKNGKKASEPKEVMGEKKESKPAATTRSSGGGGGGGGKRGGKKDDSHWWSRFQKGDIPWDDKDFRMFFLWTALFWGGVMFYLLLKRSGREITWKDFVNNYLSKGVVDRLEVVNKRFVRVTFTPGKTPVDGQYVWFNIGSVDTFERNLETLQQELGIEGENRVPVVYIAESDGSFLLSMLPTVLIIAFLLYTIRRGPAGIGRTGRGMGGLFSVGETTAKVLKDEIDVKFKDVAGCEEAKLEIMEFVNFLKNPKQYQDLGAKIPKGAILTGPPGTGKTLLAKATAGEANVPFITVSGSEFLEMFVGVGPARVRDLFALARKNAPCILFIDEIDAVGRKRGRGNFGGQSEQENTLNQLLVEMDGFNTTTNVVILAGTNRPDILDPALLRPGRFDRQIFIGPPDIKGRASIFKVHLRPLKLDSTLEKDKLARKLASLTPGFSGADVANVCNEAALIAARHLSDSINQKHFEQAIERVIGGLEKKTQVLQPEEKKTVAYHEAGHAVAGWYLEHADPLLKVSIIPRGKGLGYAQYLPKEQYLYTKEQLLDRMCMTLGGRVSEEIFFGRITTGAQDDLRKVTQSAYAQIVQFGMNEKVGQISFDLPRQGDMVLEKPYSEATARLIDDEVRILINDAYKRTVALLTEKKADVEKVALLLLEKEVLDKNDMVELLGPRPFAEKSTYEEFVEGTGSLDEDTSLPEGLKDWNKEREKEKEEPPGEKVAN
UniProt Q8N302: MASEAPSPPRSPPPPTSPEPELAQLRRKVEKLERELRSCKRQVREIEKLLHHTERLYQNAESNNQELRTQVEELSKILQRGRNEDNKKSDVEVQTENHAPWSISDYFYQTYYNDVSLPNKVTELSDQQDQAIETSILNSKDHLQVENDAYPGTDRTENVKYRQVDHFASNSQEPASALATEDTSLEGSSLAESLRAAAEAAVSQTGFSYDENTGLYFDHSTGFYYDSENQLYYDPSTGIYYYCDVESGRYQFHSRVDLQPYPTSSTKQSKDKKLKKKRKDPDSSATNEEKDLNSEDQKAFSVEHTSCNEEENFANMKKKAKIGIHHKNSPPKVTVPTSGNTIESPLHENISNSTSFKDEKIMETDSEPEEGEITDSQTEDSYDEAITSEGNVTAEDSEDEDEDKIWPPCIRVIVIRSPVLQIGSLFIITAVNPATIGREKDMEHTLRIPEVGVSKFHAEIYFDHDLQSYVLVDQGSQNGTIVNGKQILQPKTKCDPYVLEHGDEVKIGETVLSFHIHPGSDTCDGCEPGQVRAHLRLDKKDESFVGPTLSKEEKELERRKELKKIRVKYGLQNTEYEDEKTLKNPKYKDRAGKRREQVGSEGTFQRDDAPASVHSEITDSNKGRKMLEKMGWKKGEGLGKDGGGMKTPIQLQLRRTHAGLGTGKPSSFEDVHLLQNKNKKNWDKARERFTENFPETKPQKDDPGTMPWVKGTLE

These targets were tested with Cc1cc(ccc1-c1ccccc1)C(=O)N1CCCN(CC1)C(=O)CCl [compound 10] (assay: probe-labelled cysteine peptide fold change vs DMSO (competition) (log2 fold change); higher = less target engagement (more negative = stronger competition)). Details: 50 µM; THP-1; incubation time: 4 h.
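Note: competitive profiling in live THP-1 cells: cysteine peptides tagged with an iodoacetamide desthiobiotin (IA-DTB) probe, intensity after compound treatment relative to DMSO-treated cells.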

| Target | probe-labelled cysteine peptide fold change |
| --- | --- |
| ADGRA2_Q96PE1_196_VVDLGTEFLTCDCHLR (UniProt Q96PE1) | 0.00643 |
| ADGRL3_Q9HAR2_135_VFLCPGLLK (UniProt Q9HAR2) | 0.0353 |
| ACTG1_P63261_17_MEEEIAALVIDNGSGMCK (UniProt P63261) | -0.292 |
| ACSL1_P33121_241_CGVEVTSMK (UniProt P33121) | -0.278 |
| ADAM10_O14672_530_DDSDCAR (UniProt O14672) | 1.2 |
| ADIPOR1_Q96A54_54_AEEEQTCPVPQEEEEEVR (UniProt Q96A54) | -0.0957 |
| ADNP_Q9H2P0_76+79_TKPFCCSACPFSSK (UniProt Q9H2P0) | -0.81 |
| ADK_P55263_160_SLIANLAAANCYKK (UniProt P55263) | -1.01 |
| ADD2_P35612_177_GVSCSEVTASSLIK (UniProt P35612) | 0.0331 |
| ADNP_Q9H2P0_226_CLFMPK (UniProt Q9H2P0) | 0.0181 |
| ACSS3_Q9H6R3_602_GHVPLALCVLR (UniProt Q9H6R3) | -0.0104 |
| ADAR_P55265_909_GDSLSLKGETVNDCHAEIISR (UniProt P55265) | -0.846 |
| ACTN4_O43707_793_ACLISLGYDVENDR (UniProt O43707) | 0.288 |
| ADAR_P55265_909_GETVNDCHAEIISR (UniProt P55265) | 0.255 |
| ADNP_Q9H2P0_449_ICTICNELFPENVYSVHFEK (UniProt Q9H2P0) | 0.0582 |
| ADAM10_O14672_484_DECCFDANQPEGR (UniProt O14672) | -0.124 |
| AGA_P20933_179_YCGPYKPPGILK (UniProt P20933) | 0.0101 |
| ADRM1_Q16186_60_GLVYIQQTDDSLIHFCWK (UniProt Q16186) | 0.138 |

| Target | probe-labelled cysteine peptide fold change |
| --- | --- |
| ADGRL2_O95490_1250_GDYNDSVQVVDCGLSLNDTAFEK (UniProt O95490) | -0.28 |
| ADA_P00813_262_QENMHFEICPWSSYLTGAWKPDTEHAVIR (UniProt P00813) | -0.0732 |
| AFG3L2_Q9Y4W6_525_LASLTPGFSGADVANVCNEAALIAAR (UniProt Q9Y4W6) | -0.0308 |
| ADPGK_Q9BRR6_178_VLLCGPVGPK (UniProt Q9BRR6) | 0.263 |
| ADH5_P11766_97+100_AGDTVIPLYIPQCGECK (UniProt P11766) | -0.657 |
| ACSL4_O60488_552_WFCTGDIGEFHPDGCLQIIDR (UniProt O60488) | -0.177 |
| ACSS3_Q9H6R3_285_AQSHDCVPVLSEHPLYILYTSGTTGLPK (UniProt Q9H6R3) | 0.0411 |
| ACTB_P60709_17_DDDIAALVVDNGSGMCK (UniProt P60709) | -0.0887 |
| AFG3L2_Q9Y4W6_402_NAPCILFIDEIDAVGRK (UniProt Q9Y4W6) | 0.067 |
| AGGF1_Q8N302_307_AFSVEHTSCNEEENFANMK (UniProt Q8N302) | 0.103 |
| ADA2_Q9NZK5_408_DIPIEVCPISNQVLK (UniProt Q9NZK5) | -0.195 |
| ACSL1_P33121_274_KPKPPAPEDLAVICFTSGTTGNPK (UniProt P33121) | 0.0335 |
| AGL_P35573_486_ELICWGDSVK (UniProt P35573) | 0.033 |
| ADAM10_O14672_582_YGLEECTCASSDGKDDK (UniProt O14672) | -0.0537 |
| ACTR10_Q9NZ32_215_TCFVSDLK (UniProt Q9NZ32) | 0.224 |
| ADNP_Q9H2P0_31_ILSDIGLEYCK (UniProt Q9H2P0) | 0.0383 |
| ACTR3_P61158_408_DYEEIGPSICR (UniProt P61158) | -0.00255 |
| ACSL1_P33121_336_VVECVMLCHGAK (UniProt P33121) | -0.464 |
